PubChem BioAssay AID504764 – Drosophila RNAi Screening Center | 2011

- Test: 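Genes whose knock-down alters Notch-dependent transcription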 (primary screen)
- Cells: Drosophila Kc167 cells
- Knock-down reagent: long dsRNA against Drosophila genes
- Timing: about 5 days (4 days dsRNA, then 24 h after transfection)
- Challenge: transfection of constitutively active membrane-tethered Notch lacking the extracellular domain, read 24 h later
- Detection: 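Firefly luciferase from an E(spl)m3 reporter with active Notch, plus control-promoter and uninduced reporter wells for normalisation; unnormalised counts, duplicate wells a and b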
- Scale: induced reporter light, run 1, well a and induced reporter light, run 1, well b: higher = more light from the Notch target reporter with active Notch; control promoter light, run 1, well a and control promoter light, run 1, well b: higher = more light from the viral control promoter (cell number, transfection, viability); uninduced reporter light, run 1, well a: higher = more light from the Notch target reporter without active Notch
- Active means: 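Wells with low control signal or poorly matching duplicates excluded; duplicates averaged; per source plate, z beyond ±2 for induced/control log2 ratio or beyond ±1.8 for induced/uninduced marks a hit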
- Meaning of the calls: active = modifier hit (raised or lowered Notch signal); inactive = not a hit
The screen tested about 22,000 reagents; below is an unselected part of those that have a named target and a result. Over the whole deposit, 403 (1.9%) are marked active. 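Unnormalised raw counts per well; ratio z-scores behind the hit calls and whether each hit raises or lowers signal are not deposited.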 The numbers tell different reagents against one gene apart. A plus sign joins genes that one reagent is predicted to hit. The record does not give: the amount of reagent.

| target gene | reagent | induced reporter light, run 1, well a | induced reporter light, run 1, well b | control promoter light, run 1, well a | control promoter light, run 1, well b | uninduced reporter light, run 1, well a | activity call |
| --- | --- | --- | --- | --- | --- | --- | --- |
| CG13614 | 1 | 1.93e5 | 1.72e5 | 2.08e5 | 2.05e5 | 15250 | inactive |
| CG9997 | 1 | 7485 | 9660 | 12005 | 11228 | 660 | inactive |
| CG15537 | 1 | 1.58e5 | 1.37e5 | 2.28e5 | 1.99e5 | 10788 | inactive |
| SF2 | 1 | 84330 | 75455 | 51510 | 52130 | 7278 | inactive |
| Ravus | 1 | 1.80e5 | 1.75e5 | 1.51e5 | 1.46e5 | 17555 | inactive |
| CG15480 | 1 | 1.02e5 | 1.28e5 | 89045 | 1.09e5 | 11830 | inactive |
| alpha4GT1 | 1 | 2.73e5 | 2.51e5 | 2.36e5 | 2.08e5 | 23490 | inactive |
| ScsbetaA | 1 | 93845 | 1.26e5 | 73840 | 58725 | 7115 | inactive |
| CG32488 | 1 | 1.99e5 | 1.84e5 | 3.20e5 | 2.88e5 | 14200 | inactive |
| CG16772 | 1 | 50730 | 47775 | 44675 | 46275 | 2825 | inactive |
| Slu7 | 1 | 54800 | 40175 | 62385 | 78765 | 3465 | inactive |
| RabX5 | 1 | 98430 | 1.06e5 | 1.31e5 | 1.69e5 | 5665 | inactive |
| Prosbeta5R2 | 1 | 64865 | 53950 | 61710 | 59600 | 6590 | inactive |
| CG1077 | 1 | 97250 | 1.15e5 | 1.01e5 | 92220 | 7785 | inactive |
| CG4907 | 1 | 1.59e5 | 1.32e5 | 1.64e5 | 1.84e5 | 13035 | inactive |
| CG10431 | 1 | 1678 | 1378 | 2120 | 1905 | 130 | inactive |
| PIG-F | 1 | 1.59e5 | 1.15e5 | 1.20e5 | 88230 | 7045 | inactive |
| Vha16-5 | 1 | 1.37e5 | 1.36e5 | 1.11e5 | 1.29e5 | 19180 | inactive |
| PolE4 | 1 | 2.08e5 | 2.06e5 | 1.44e5 | 1.66e5 | 13520 | inactive |
| cl | 1 | 1.58e5 | 1.64e5 | 1.66e5 | 1.75e5 | 15732 | inactive |
| Or85e (retired record) | 1 | 81840 | 1.16e5 | 99710 | 1.02e5 | 5360 | inactive |
| ARY (retired record) | 1 | 2.69e5 | 2.62e5 | 4.16e5 | 4.26e5 | 20115 | inactive |
| Pex16 | 1 | 1.08e5 | 1.23e5 | 78055 | 92495 | 9678 | inactive |
| CG3386 | 1 | 1.38e5 | 1.54e5 | 2.38e5 | 1.94e5 | 8765 | inactive |
| Dyb | 1 | 1.91e5 | 2.15e5 | 1.90e5 | 2.08e5 | 15600 | inactive |
| CCHa1-R | 1 | 1.06e5 | 69655 | 96975 | 98375 | 6632 | inactive |
| CCHa1-R | 2 | 1.52e5 | 1.10e5 | 1.07e5 | 1.03e5 | 7615 | inactive |
| cpa | 1 | 85215 | 1.16e5 | 1.26e5 | 1.57e5 | 8380 | active |
| CG43894 | 1 | 2.14e5 | 2.01e5 | 1.54e5 | 1.52e5 | 8850 | inactive |
| CG8661 | 1 | 1.26e5 | 1.14e5 | 1.33e5 | 1.09e5 | 14190 | inactive |
| Cand1 | 1 | 1.41e5 | 1.52e5 | 1.28e5 | 1.43e5 | 13978 | inactive |
| Cyp6a15Psi | 1 | 1.62e5 | 1.56e5 | 2.19e5 | 2.06e5 | 15380 | inactive |
| CG7290 | 1 | 1.20e5 | 95915 | 1.11e5 | 1.29e5 | 6585 | inactive |

Continued (9 carried over from the part before).
| target gene | reagent | induced reporter light, run 1, well a | induced reporter light, run 1, well b | control promoter light, run 1, well a | control promoter light, run 1, well b | uninduced reporter light, run 1, well a | activity call |
| --- | --- | --- | --- | --- | --- | --- | --- |
| Dyb | 1 | 1.91e5 | 2.15e5 | 1.90e5 | 2.08e5 | 15600 | inactive |
| CCHa1-R | 1 | 1.06e5 | 69655 | 96975 | 98375 | 6632 | inactive |
| CCHa1-R | 2 | 1.52e5 | 1.10e5 | 1.07e5 | 1.03e5 | 7615 | inactive |
| cpa | 1 | 85215 | 1.16e5 | 1.26e5 | 1.57e5 | 8380 | active |
| CG43894 | 1 | 2.14e5 | 2.01e5 | 1.54e5 | 1.52e5 | 8850 | inactive |
| CG8661 | 1 | 1.26e5 | 1.14e5 | 1.33e5 | 1.09e5 | 14190 | inactive |
| Cand1 | 1 | 1.41e5 | 1.52e5 | 1.28e5 | 1.43e5 | 13978 | inactive |
| Cyp6a15Psi | 1 | 1.62e5 | 1.56e5 | 2.19e5 | 2.06e5 | 15380 | inactive |
| CG7290 | 1 | 1.20e5 | 95915 | 1.11e5 | 1.29e5 | 6585 | inactive |
| Spc105R | 1 | 44895 | 41370 | 36995 | 41000 | 4635 | inactive |
| Ciao1 | 1 | 1.93e5 | 1.73e5 | 1.39e5 | 1.61e5 | 12600 | inactive |
| His2B:CG33870 + His2B:CG33868 + His2B:CG33882 + 21 more | 1 | 27330 | 22440 | 17620 | 16550 | 1565 | inactive |
| CG30058 + CG34235 + CG34312 | 1 | 1.53e5 | 1.73e5 | 2.09e5 | 2.10e5 | 18090 | inactive |
| CG14982 | 1 | 17275 | 15565 | 16175 | 17865 | 3160 | inactive |
| CG7246 | 1 | 1.84e5 | 1.68e5 | 2.11e5 | 1.97e5 | 9605 | inactive |
| CG3829 | 1 | 2.62e5 | 2.70e5 | 2.11e5 | 2.32e5 | 18640 | inactive |
| CG31089 | 1 | 1.72e5 | 1.71e5 | 1.89e5 | 1.83e5 | 13860 | inactive |
| bves | 1 | 94735 | 95870 | 1.25e5 | 1.16e5 | 10435 | inactive |
| bves | 2 | 75890 | 75640 | 77555 | 90835 | 10520 | inactive |
| bves | 3 | 78960 | 83010 | 97895 | 1.05e5 | 9320 | inactive |
| Cad86C | 1 | 79130 | 90700 | 92930 | 73890 | 7095 | inactive |
| Cad86C | 2 | 99705 | 95675 | 93820 | 95055 | 7210 | inactive |
| CG5742 | 1 | 85675 | 85475 | 1.59e5 | 1.63e5 | 6870 | inactive |
| Pp1-13C | 1 | 1.23e5 | 1.09e5 | 1.20e5 | 94660 | 14930 | inactive |
| CG15034 | 1 | 1.21e5 | 1.30e5 | 2.20e5 | 2.34e5 | 10165 | inactive |
| uncNacbeta | 1 | 1.06e5 | 1.07e5 | 1.13e5 | 72300 | 7835 | inactive |
| trpl | 1 | 1.82e5 | 1.61e5 | 2.23e5 | 2.31e5 | 15520 | inactive |
| trpl | 2 | 1.74e5 | 1.85e5 | 1.97e5 | 2.10e5 | 15728 | inactive |
| Ssk | 1 | 1.28e5 | 1.02e5 | 80525 | 84105 | 8610 | inactive |
| Rpt6 | 1 | 1.35e5 | 1.14e5 | 1.01e5 | 57645 | 9255 | inactive |
| Snap25 | 1 | 85235 | 85770 | 93725 | 1.10e5 | 8865 | inactive |
| Snap25 | 2 | 90010 | 67575 | 90070 | 81760 | 5770 | inactive |
| CG15169 | 1 | 33880 | 31245 | 32975 | 51455 | 1770 | inactive |
| colt | 1 | 1.36e5 | 1.59e5 | 1.73e5 | 1.70e5 | 14745 | inactive |
| ncd | 1 | 1.11e5 | 1.11e5 | 1.38e5 | 1.35e5 | 10900 | active |
| CG33221 (retired record) | 1 | 80380 | 67660 | 1.01e5 | 70070 | 5790 | inactive |
| qin | 1 | 2.62e5 | 1.96e5 | 2.04e5 | 1.68e5 | 14005 | inactive |
| CG12853 | 1 | 1.02e5 | 98265 | 1.36e5 | 1.41e5 | 7245 | inactive |
| l(2)03659 | 1 | 1.78e5 | 1.73e5 | 2.36e5 | 2.10e5 | 15090 | inactive |
| l(2)03659 | 2 | 2.00e5 | 1.44e5 | 1.57e5 | 1.56e5 | 12300 | inactive |
